Tested on: STING / c-di-GMP
Assay: Protein-nucleotide interaction assay for STING and c-di-GMP binding using IPS-Linker-coated chip

## O=C(O)COc1c2cccc1Cc1cccc3c1OCCOCCOCCOCCOc1c(cccc1C2)CC1=CC=CC(C3)C1OCC(=O)O (centres unmarked) [IPS-Linker]
2′[DY-547]-AHC-c-di GMP ligand (FIG. 5)
  lowest c-di-GMP concentration at which interaction detected: 3.9 µM
His-tagged STING captured by His×6 antibody (FIG. 5)
  lowest STING protein concentration at which interaction detected: 5 µM

— patent US20200290989A1, “CALIXCROWNS AND USES THEREOF” (INNOPHARMASCREEN INC., priority 2019, published 2020)
